From paper PMC3967990
Results are given in words; binding and its absence hold for the method and conditions named. Binding seen in cells or lysates may run through a third protein. Some entries that bind do so weakly or less than the wild type. Where a sequence is shown, tags or fusion partners need not be part of it.

Chains of the proteins cited; added tags and fusions are not shown.
UniProt P08238: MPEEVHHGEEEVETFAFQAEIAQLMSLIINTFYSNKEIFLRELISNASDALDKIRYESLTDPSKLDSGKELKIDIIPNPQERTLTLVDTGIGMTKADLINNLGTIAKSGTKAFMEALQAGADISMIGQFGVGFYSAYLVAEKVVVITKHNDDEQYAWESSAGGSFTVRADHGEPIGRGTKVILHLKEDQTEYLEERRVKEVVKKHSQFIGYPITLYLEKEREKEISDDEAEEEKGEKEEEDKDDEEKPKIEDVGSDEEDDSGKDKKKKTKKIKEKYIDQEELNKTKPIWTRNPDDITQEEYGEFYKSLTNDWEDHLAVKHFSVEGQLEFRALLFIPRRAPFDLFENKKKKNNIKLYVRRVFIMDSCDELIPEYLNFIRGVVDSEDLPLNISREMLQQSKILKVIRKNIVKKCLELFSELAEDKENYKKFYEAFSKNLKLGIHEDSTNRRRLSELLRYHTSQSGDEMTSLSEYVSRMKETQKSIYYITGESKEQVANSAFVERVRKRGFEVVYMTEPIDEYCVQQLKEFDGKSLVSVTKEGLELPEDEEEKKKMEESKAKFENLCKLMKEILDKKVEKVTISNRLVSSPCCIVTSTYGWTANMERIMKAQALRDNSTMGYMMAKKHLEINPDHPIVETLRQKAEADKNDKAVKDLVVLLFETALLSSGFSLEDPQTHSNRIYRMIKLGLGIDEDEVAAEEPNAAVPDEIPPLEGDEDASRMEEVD

T1: HA-tagged GSDMB-1, transiently expressed in HEK293T cells (human) (UniProt Q8TAX9)
T1 sequence: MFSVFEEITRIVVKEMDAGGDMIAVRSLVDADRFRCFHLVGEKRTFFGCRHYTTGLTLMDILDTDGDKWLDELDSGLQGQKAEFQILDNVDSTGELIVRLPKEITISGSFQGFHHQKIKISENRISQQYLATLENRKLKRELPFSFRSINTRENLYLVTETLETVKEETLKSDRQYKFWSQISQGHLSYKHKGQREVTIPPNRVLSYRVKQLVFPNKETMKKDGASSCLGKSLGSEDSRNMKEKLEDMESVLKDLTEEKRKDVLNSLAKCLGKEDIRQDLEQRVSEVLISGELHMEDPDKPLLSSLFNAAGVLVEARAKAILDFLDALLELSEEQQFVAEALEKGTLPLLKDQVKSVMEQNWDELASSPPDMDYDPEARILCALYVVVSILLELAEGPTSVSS

T2: HA-tagged GSDMB-2, transiently expressed in HEK293T cells (human) (UniProt Q8TAX9)
T2 sequence: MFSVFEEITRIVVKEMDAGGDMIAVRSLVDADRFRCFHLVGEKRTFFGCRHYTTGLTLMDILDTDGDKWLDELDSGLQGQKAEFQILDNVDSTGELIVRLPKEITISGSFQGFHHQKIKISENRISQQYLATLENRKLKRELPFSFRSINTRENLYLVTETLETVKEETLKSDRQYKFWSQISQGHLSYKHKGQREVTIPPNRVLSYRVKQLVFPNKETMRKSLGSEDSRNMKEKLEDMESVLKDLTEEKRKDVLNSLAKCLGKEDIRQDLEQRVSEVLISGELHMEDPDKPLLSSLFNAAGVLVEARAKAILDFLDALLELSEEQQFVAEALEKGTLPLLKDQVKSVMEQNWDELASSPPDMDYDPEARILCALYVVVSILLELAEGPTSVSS


Assays:
Assay in all cases: co-IP; HEK293T transiently expressing GSDMB-1-HA or GSDMB-2-HA; IP of GSDMB-HA with blot for Hsp90, and IP of Hsp90 with blot for GSDMB; lysis in 10 mM Tris-HCl pH 7.5, 150 mM NaCl, 5 mM EDTA, 1 mM PMSF; antibody overnight, protein A/G-sepharose 1 hr at 4°C
[1] = biological target: T1, HA-tagged GSDMB-1, transiently expressed in HEK293T cells (human)
[2] = biological target: T2, HA-tagged GSDMB-2, transiently expressed in HEK293T cells (human)
[3] = biological target: Hsp90, endogenous in HEK293T cells (human (endogenous in HEK293T)) (UniProt P08238)

Molecule	binding [1]	binding [2]	binding [3]
Hsp90, endogenous in HEK293T cells (from UniProt P08238 1-724)	binds	binds	–
HA-tagged GSDMB-1, transiently expressed in HEK293T cells (protein, UniProt Q8TAX9-3 1-403) MFSVFEEITRIVVKEMDAGGDMIAVRSLVDADRFRCFHLVGEKRTFFGCRHYTTGLTLMDILDTDGDKWLDELDSGLQGQKAEFQILDNVDSTGELIVRLPKEITISGSFQGFHHQKIKISENRISQQYLATLENRKLKRELPFSFRSINTRENLYLVTETLETVKEETLKSDRQYKFWSQISQGHLSYKHKGQREVTIPPNRVLSYRVKQLVFPNKETMKKDGASSCLGKSLGSEDSRNMKEKLEDMESVLKDLTEEKRKDVLNSLAKCLGKEDIRQDLEQRVSEVLISGELHMEDPDKPLLSSLFNAAGVLVEARAKAILDFLDALLELSEEQQFVAEALEKGTLPLLKDQVKSVMEQNWDELASSPPDMDYDPEARILCALYVVVSILLELAEGPTSVSS	–	–	binds
HA-tagged GSDMB-2, transiently expressed in HEK293T cells (protein, UniProt Q8TAX9-2 1-394) MFSVFEEITRIVVKEMDAGGDMIAVRSLVDADRFRCFHLVGEKRTFFGCRHYTTGLTLMDILDTDGDKWLDELDSGLQGQKAEFQILDNVDSTGELIVRLPKEITISGSFQGFHHQKIKISENRISQQYLATLENRKLKRELPFSFRSINTRENLYLVTETLETVKEETLKSDRQYKFWSQISQGHLSYKHKGQREVTIPPNRVLSYRVKQLVFPNKETMRKSLGSEDSRNMKEKLEDMESVLKDLTEEKRKDVLNSLAKCLGKEDIRQDLEQRVSEVLISGELHMEDPDKPLLSSLFNAAGVLVEARAKAILDFLDALLELSEEQQFVAEALEKGTLPLLKDQVKSVMEQNWDELASSPPDMDYDPEARILCALYVVVSILLELAEGPTSVSS	–	–	binds
